Test results taken from article PMC1266395.
No constants are given. Whether binding was seen depends on the method and setting. In cells and extracts the contact can be indirect. Some binding calls cover weakened binding; strength is not graded here.

Protein sequences, listed by entry. Tags and fused reporters are not part of them.
UniProt P05556: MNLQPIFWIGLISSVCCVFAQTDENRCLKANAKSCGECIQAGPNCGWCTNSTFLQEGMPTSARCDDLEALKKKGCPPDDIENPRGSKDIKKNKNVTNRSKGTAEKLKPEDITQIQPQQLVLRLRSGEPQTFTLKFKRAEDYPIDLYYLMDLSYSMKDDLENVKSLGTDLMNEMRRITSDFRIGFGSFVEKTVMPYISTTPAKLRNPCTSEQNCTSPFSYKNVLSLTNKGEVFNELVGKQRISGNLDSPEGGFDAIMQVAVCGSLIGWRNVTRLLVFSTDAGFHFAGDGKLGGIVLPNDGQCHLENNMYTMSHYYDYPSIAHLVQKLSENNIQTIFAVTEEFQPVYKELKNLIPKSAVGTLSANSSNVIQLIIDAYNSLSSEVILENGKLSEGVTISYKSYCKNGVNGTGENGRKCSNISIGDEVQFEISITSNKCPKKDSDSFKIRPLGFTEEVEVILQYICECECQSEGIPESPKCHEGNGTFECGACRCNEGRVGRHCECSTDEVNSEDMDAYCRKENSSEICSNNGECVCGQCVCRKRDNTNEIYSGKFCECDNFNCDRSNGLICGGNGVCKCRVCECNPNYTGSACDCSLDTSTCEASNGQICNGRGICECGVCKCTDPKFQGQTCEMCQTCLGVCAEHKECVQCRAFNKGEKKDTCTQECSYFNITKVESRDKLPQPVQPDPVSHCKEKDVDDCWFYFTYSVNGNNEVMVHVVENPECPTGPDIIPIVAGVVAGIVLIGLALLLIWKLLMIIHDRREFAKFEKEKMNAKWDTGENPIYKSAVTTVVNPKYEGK
UniProt Q05397: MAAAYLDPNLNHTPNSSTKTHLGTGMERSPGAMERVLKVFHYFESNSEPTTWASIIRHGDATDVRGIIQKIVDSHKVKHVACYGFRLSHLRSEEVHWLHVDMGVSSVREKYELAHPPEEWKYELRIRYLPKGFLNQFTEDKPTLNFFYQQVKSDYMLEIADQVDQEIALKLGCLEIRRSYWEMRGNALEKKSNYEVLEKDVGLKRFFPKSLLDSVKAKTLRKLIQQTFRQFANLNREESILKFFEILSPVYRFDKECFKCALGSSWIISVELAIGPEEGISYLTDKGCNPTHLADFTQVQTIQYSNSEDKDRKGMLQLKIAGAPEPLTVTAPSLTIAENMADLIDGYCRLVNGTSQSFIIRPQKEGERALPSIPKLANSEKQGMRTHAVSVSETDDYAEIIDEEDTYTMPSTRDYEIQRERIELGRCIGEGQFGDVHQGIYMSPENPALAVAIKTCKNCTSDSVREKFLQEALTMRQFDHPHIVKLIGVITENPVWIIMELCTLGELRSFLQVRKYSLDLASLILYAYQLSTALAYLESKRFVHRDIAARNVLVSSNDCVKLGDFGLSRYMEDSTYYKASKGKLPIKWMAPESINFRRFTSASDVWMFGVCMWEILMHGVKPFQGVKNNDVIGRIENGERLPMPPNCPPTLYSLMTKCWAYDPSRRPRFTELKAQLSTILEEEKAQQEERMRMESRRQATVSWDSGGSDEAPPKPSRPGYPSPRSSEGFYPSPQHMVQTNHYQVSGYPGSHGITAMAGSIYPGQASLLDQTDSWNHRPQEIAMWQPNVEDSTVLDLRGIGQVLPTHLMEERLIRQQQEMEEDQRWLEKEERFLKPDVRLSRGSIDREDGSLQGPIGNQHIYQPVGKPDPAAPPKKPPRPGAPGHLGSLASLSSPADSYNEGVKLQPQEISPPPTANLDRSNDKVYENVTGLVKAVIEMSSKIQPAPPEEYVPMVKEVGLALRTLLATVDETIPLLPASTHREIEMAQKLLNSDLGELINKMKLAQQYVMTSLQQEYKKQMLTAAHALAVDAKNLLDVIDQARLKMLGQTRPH

Biological target: β1 integrin subunit (human (endogenous in AsPC-1, BxPC-3, Capan-2)) (UniProt P05556)
Test: co-IP; β1 integrin immunoprecipitated with anti-β1 (P5D2) from total lysates (750 μg protein) of AsPC-1, BxPC-3 and Capan-2 cells plated on Coll IV or 3 % BSA, with or without 10 ng/ml IL-1α, 0.5 μg/ml anti-β1 integrin antibody or FAK siRNA; 4°C overnight; lysis buffer 50 mM Tris-HCl pH 7.5, 150 mM NaCl, 1 % Triton X-100, 0.1 % SDS, 0.1 % Nonidet P-40; blot with anti-FAK

binding: binds
Substance: focal adhesion kinase (from UniProt Q05397 1-1052)
